From PubChem BioAssay (NCATS)
The shares of active, inactive and inconclusive entries below differ from those in the screen. Potencies of inconclusive entries are doubtful fits and often do not repeat. The source made the active and inactive calls. Calls follow the shape of the dose curve; as a rule, active = well fitted cell-killing curve with a large enough effect; inconclusive = small, poorly fitted or top-dose-only effect, or effect the other way; inactive = no such curve, though single readings can be large or run the other way.
Potency is read from the fitted curve at half-maximal effect.

Test: Quantitative High-Throughput drug screen in 47 multiple myeloma cell lines against the NCATS MIPE library collection: KMS28PE_JCRB cell viability assay (AID 1918983); also: nearly all actives have a fitted effect of over 35% in size
Settings: KMS28PE multiple myeloma viability, CellTiter-Glo ATP, 48 h; series mostly up to 45.8 µM
Procedure, shortened: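 qHTS format: cells plated (500/well), pin-dosed with MIPE 4.0 compounds, kept 48 h at 37 °C. Readout was CellTiter-Glo luminescence, median RLU.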
With `CN(C)c1cc(NC(=O)CNC(C)(C)C)c(O)c2c1C[C@@H]1C[C@H]3[C@H](N(C)C)C(=O)C(C(N)=O)=C(O)[C@@]3(O)C(=O)C1=C2O` the Potency was “inactive”.
With `CC(C)(O)[C@H]1CC[C@@](C)([C@H]2[C@@H](O)C[C@@]3(C)[C@@H]4C[C@H](O[C@@H]5O[C@H](CO)[C@@H](O)[C@H](O)[C@@H]5O)[C@H]5C(C)(C)[C@@H](O[C@@H]6OC[C@@H](O)[C@H](O)[C@@H]6O)CC[C@@]56C[C@@]46CC[C@]23C)O1` the Potency was “inactive”.
With `COc1ccc2cc([C@H](C)C(=O)O)ccc2c1` the Potency was inconclusive: 3.72 µM [cytotoxic, partial curve, poor fit].
In the case of `O=c1c(O)c(-c2ccc(O)c(O)c2)oc2cc(O)ccc12`, the Potency is reported as inconclusive: 26.4 µM [cytotoxic, single point].
In the case of `O=NN(CCCl)C(=O)NCCCl`, the Potency is reported as inconclusive: 0.0017 µM [rising, full curve, poor fit].
With `CC1=C(CO)C(=O)O[C@@H]([C@@H](C)[C@H]2CC[C@H]3[C@@H]4C[C@H]5O[C@]56[C@@H](O)C=CC(=O)[C@]6(C)[C@@H]4CC[C@]23C)C1` the Potency was active: 0.264 µM.
With `COc1ccc2c3c1OC1C[C@@H](O)C=C[C@@]31CCN(C)C2` (stereo not given in full) the Potency was “inactive”.
In the case of `NC(CO)C(=O)NNCc1ccc(O)c(O)c1O` (stereo not given), the Potency is reported as inconclusive: 26.4 µM [cytotoxic, single point].
For `CC1(C)CCC2=C(O1)c1ccccc1C(=O)C2=O`, the Potency was inconclusive: 33.2 µM [cytotoxic, single point].
For `N[C@@H](Cc1c[nH]c2ccc(O)cc12)C(=O)O`, the Potency was inconclusive: 0.0013 µM [rising, full curve, poor fit].
For `Oc1ccc2ccccc2c1SSc1c(O)ccc2ccccc12`, the Potency was inconclusive: 33.2 µM [cytotoxic, single point].
In the case of `COC(=O)C1=CO[C@@H](O)[C@@H]2C(CO)=CC[C@@H]12`, the Potency is reported as inconclusive: 23.5 µM [cytotoxic, single point].
In the case of `O=C(O)c1ccccc1C(=O)Nc1ccc(-c2ccccc2)cc1`, the Potency is reported as “inactive”.
For `NC1CCC(Nc2nc(Nc3ccc(C(=O)N4CCCCC4)cc3)c3ncn(-c4cccc(F)c4)c3n2)CC1` (stereo not given), the Potency was inconclusive: 0.0026 µM [rising, full curve, poor fit].
For `Cc1ccnc2c1NC(=O)c1cccnc1N2C1CC1`, the Potency was “inactive”.
